Binding data for one substance are collected here from paper doi:10.1101/2023.03.30.534876.

Results are given in words; binding and its absence hold for the method and conditions named. In cells and extracts the contact can be indirect. Binding can be weak; no strength is given. Tags and fused reporters may be left off the sequences shown.

This assay has as its target T1, PPE51-myc expressed in M. smegmatis (pJEX55-PPE51) (M. tuberculosis) (UniProt P9WHY3).
T1 sequence: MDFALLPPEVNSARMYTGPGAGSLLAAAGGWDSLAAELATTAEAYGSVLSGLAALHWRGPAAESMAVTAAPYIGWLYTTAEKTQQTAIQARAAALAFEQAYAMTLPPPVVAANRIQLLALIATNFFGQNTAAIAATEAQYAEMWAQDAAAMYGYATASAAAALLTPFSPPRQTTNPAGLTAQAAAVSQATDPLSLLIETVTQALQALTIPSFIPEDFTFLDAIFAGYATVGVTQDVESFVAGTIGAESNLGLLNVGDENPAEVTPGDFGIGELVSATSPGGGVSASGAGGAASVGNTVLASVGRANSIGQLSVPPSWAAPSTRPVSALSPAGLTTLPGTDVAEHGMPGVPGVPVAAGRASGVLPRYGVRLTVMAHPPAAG
The assay can be described thus: co-IP.

In the case of “PPE50-6xHis expressed in M. smegmatis (pSCW54-PPE50)”, the binding entry is listed as “binds”.
